# The other results are listed elsewhere or left out.
# B1: MXA PilAct-eGFP (Myxococcus xanthus), Q59589 (protein)
# chain: MRVSRFNPRNRGFTLIELMIVVAIIGILAAIAIPNFIKFQARSKQSEAKTNLKALYTAQKSFFSEKDRYSDFANEIGFAPERGNRYGYRVSAAAGDCEVRNAADLPVPAAGVPCISNDSFRFGANSAIDDPTPVVARFVPQGAAGWNTTLGVQPTIADCPNCNFFAGARGNADNEATFDDWVIAGFEGSGQVGPCSEAGNVASGTPYNTRNDVACDGAAQ
# Key:
# Assay in all cases: glycan array binding signal (z-score within array); higher = stronger binding
# Details in all cases: glycan notation: IUPAC condensed, linker removed
# [1] = target: Man(a1-2)Man(a1-3)[Man(a1-2)Man(a1-6)]Man(a1-6)[Man(a1-2)Man(a1-2)Man(a1-3)]Man
# Outline: (§1)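 Negative Z-scores can be read as non-binding. The Z-score is calculated within each array and then averaged across arrays of one protein sequence at different concentrations or buffers and across linkers. Arrays, 3228 in all, were curated from the Consortium for Functional Glycomics database and kept only where the protein sequence was available.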
# [2] = target: Man(a1-2)Man(a1-3)[Man(a1-2)Man(a1-6)]Man(a1-6)[Man(a1-2)Man(a1-2)Man(a1-3)]Man(b1-4)GlcNAc(b1-4)GlcNAc
# Outline: as §1
# [3] = target: Man(a1-2)Man(a1-3)[Man(a1-6)]Man(a1-6)[Man(a1-2)Man(a1-3)]Man(b1-4)GlcNAc(b1-4)GlcNAc
# Outline: as §1
# [4] = target: Man(a1-2)Man(a1-6)[Man(a1-3)]Man(a1-6)[Man(a1-2)Man(a1-2)Man(a1-3)]Man
# Outline: as §1
# [5] = target: Man(a1-2)Man(a1-6)[Man(a1-3)]Man(a1-6)[Man(a1-2)Man(a1-2)Man(a1-3)]Man(b1-4)GlcNAc(b1-4)GlcNAc
# Outline: as §1
# Man(a1-3)[Man(a1-6)]Man = target: Man(a1-3)[Man(a1-6)]Man
# Outline: as §1
# [6] = target: Man(a1-3)[Man(a1-6)]Man(a1-6)[Man(a1-2)Man(a1-3)]Man(b1-4)GlcNAc(b1-4)GlcNAc
# Outline: as §1
# [7] = target: Man(a1-3)[Man(a1-6)]Man(a1-6)[Man(a1-3)]Man
# Outline: as §1
# [8] = target: Man(a1-3)[Man(a1-6)]Man(a1-6)[Man(a1-3)]Man(b1-4)GlcNAc(b1-4)GlcNAc
# Outline: as §1
# [9] = target: Man(a1-3)[Man(a1-6)]Man(b1-4)GlcNAc(b1-4)GlcNAc
# Outline: as §1
# [10] = target: Man(a1-3)[Man(a1-6)]Man(b1-4)GlcNAc(b1-4)[Fuc(a1-6)]GlcNAc
# Outline: as §1
# Man(a1-6)Man = target: Man(a1-6)Man
# Outline: as §1
# Man(b1-4)GlcNAc = target: Man(b1-4)GlcNAc
# Outline: as §1
# MurNAc(b1-4)GlcNAc = target: MurNAc(b1-4)GlcNAc
# Outline: as §1
# Neu5Ac(a2-3)Gal = target: Neu5Ac(a2-3)Gal
# Outline: as §1
# [11] = target: Neu5Ac(a2-3)Gal(b1-3)GalNAc
# Outline: as §1
# [12] = target: Neu5Ac(a2-3)Gal(b1-3)GalNAc(b1-3)Gal(a1-4)Gal(b1-4)Glc
# Outline: as §1
# [13] = target: Neu5Ac(a2-3)Gal(b1-3)GalNAc(b1-4)Gal(b1-4)Glc
# Outline: as §1
# [14] = target: Neu5Ac(a2-3)Gal(b1-3)GalNAc(b1-4)[Neu5Ac(a2-3)]Gal(b1-4)Glc
# Outline: as §1
# [15] = target: Neu5Ac(a2-3)Gal(b1-3)GalNAc(b1-4)[Neu5Ac(a2-8)Neu5Ac(a2-3)]Gal(b1-4)Glc
# Outline: as §1
# [16] = target: Neu5Ac(a2-3)Gal(b1-3)GalNAc6S
# Outline: as §1
# [17] = target: Neu5Ac(a2-3)Gal(b1-3)GlcNAc
# Outline: as §1
# [18] = target: Neu5Ac(a2-3)Gal(b1-3)GlcNAc(b1-2)Man
# Outline: as §1
# [19] = target: Neu5Ac(a2-3)Gal(b1-3)GlcNAc(b1-2)Man(a1-3)[GlcNAc(b1-4)][Neu5Ac(a2-3)Gal(b1-3)GlcNAc(b1-2)Man(a1-6)]Man(b1-4)GlcNAc(b1-4)GlcNAc
# Outline: as §1
# [20] = target: Neu5Ac(a2-3)Gal(b1-3)GlcNAc(b1-2)Man(a1-3)[Neu5Ac(a2-3)Gal(b1-3)GlcNAc(b1-2)Man(a1-6)]Man(b1-4)GlcNAc(b1-4)GlcNAc
# Outline: as §1
# [21] = target: Neu5Ac(a2-3)Gal(b1-3)GlcNAc(b1-2)[Neu5Ac(a2-3)Gal(b1-3)GlcNAc(b1-4)]Man(a1-6)[Neu5Ac(a2-3)Gal(b1-3)GlcNAc(b1-2)Man(a1-3)]Man(b1-4)GlcNAc(b1-4)GlcNAc
# Outline: as §1
# [22] = target: Neu5Ac(a2-3)Gal(b1-3)GlcNAc(b1-3)Gal(b1-3)GlcNAc
# Outline: as §1
# [23] = target: Neu5Ac(a2-3)Gal(b1-3)GlcNAc(b1-3)Gal(b1-4)GlcNAc
# Outline: as §1
# [24] = target: Neu5Ac(a2-3)Gal(b1-3)GlcNAc(b1-3)GalNAc
# Outline: as §1
# [25] = target: Neu5Ac(a2-3)Gal(b1-3)GlcNAc(b1-6)GalNAc
# Outline: as §1
# [26] = target: Neu5Ac(a2-3)Gal(b1-3)GlcNAc6S
# Outline: as §1
# [27] = target: Neu5Ac(a2-3)Gal(b1-3)[Fuc(a1-4)]GlcNAc
# Outline: as §1
# [28] = target: Neu5Ac(a2-3)Gal(b1-3)[Fuc(a1-4)]GlcNAc(b1-3)Gal(b1-3)[Fuc(a1-4)]GlcNAc
# Outline: as §1
# [29] = target: Neu5Ac(a2-3)Gal(b1-3)[Fuc(a1-4)]GlcNAc(b1-3)Gal(b1-4)[Fuc(a1-3)]GlcNAc
# Outline: as §1
# [30] = target: Neu5Ac(a2-3)Gal(b1-3)[GlcNAc(b1-6)]GalNAc
# Outline: as §1
# [31] = target: Neu5Ac(a2-3)Gal(b1-3)[Neu5Ac(a2-6)]GalNAc
# Outline: as §1
# [32] = target: Neu5Ac(a2-3)Gal(b1-3)[Neu5Ac(a2-6)]GlcNAc(b1-3)[Fuc(a1-3)[Gal(b1-4)]GlcNAc(b1-6)]Gal(b1-4)Glc
# Outline: as §1
# [33] = target: Neu5Ac(a2-3)Gal(b1-3)]Neu5Ac(a2-3)Gal(b1-4)]GlcNAc
# Outline: as §1
# Neu5Ac(a2-3)Gal(b1-4)Glc = target: Neu5Ac(a2-3)Gal(b1-4)Glc
# Outline: as §1
# [34] = target: Neu5Ac(a2-3)Gal(b1-4)GlcNAc
# Outline: as §1
# [35] = target: Neu5Ac(a2-3)Gal(b1-4)GlcNAc(b1-2)Man
# Outline: as §1
# [36] = target: Neu5Ac(a2-3)Gal(b1-4)GlcNAc(b1-2)Man(a1-3)[GlcNAc(b1-4)][Neu5Ac(a2-3)Gal(b1-4)GlcNAc(b1-2)Man(a1-6)]Man(b1-4)GlcNAc(b1-4)GlcNAc
# Outline: as §1
# [37] = target: Neu5Ac(a2-3)Gal(b1-4)GlcNAc(b1-2)Man(a1-3)[Neu5Ac(a2-3)Gal(b1-4)GlcNAc(b1-2)Man(a1-6)]Man(b1-4)GlcNAc(b1-4)GlcNAc
# Outline: as §1
# [38] = target: Neu5Ac(a2-3)Gal(b1-4)GlcNAc(b1-2)Man(a1-3)[Neu5Ac(a2-3)Gal(b1-4)GlcNAc(b1-2)Man(a1-6)]Man(b1-4)GlcNAc(b1-4)[Fuc(a1-6)]GlcNAc
# Outline: as §1
# [39] = target: Neu5Ac(a2-3)Gal(b1-4)GlcNAc(b1-2)Man(a1-3)[Neu5Ac(a2-6)Gal(b1-4)GlcNAc(b1-2)Man(a1-6)]Man(b1-4)GlcNAc(b1-4)GlcNAc
# Outline: as §1
binder,measurement,setting,value
B1,glycan array binding signal (z-score),[1],-0.555
same,glycan array binding signal (z-score),[2],0.553
same,glycan array binding signal (z-score),[3],-2
same,glycan array binding signal (z-score),[4],1.36
same,glycan array binding signal (z-score),[5],-0.088
same,glycan array binding signal (z-score),Man(a1-3)[Man(a1-6)]Man,-0.412
same,glycan array binding signal (z-score),[6],-0.793
same,glycan array binding signal (z-score),[7],-0.26
same,glycan array binding signal (z-score),[8],-0.784
same,glycan array binding signal (z-score),[9],-0.147
same,glycan array binding signal (z-score),[10],-1.3
same,glycan array binding signal (z-score),Man(a1-6)Man,0.911
same,glycan array binding signal (z-score),Man(b1-4)GlcNAc,-0.86
same,glycan array binding signal (z-score),MurNAc(b1-4)GlcNAc,-0.806
same,glycan array binding signal (z-score),Neu5Ac(a2-3)Gal,1.14
same,glycan array binding signal (z-score),[11],-0.41
same,glycan array binding signal (z-score),[12],-0.393
same,glycan array binding signal (z-score),[13],-0.379
same,glycan array binding signal (z-score),[14],-0.607
same,glycan array binding signal (z-score),[15],-0.584
same,glycan array binding signal (z-score),[16],-1.44
same,glycan array binding signal (z-score),[17],-0.341
same,glycan array binding signal (z-score),[18],-0.344
same,glycan array binding signal (z-score),[19],-0.92
same,glycan array binding signal (z-score),[20],-0.26
same,glycan array binding signal (z-score),[21],1.85
same,glycan array binding signal (z-score),[22],0.225
same,glycan array binding signal (z-score),[23],-0.011
same,glycan array binding signal (z-score),[24],1.58
same,glycan array binding signal (z-score),[25],-0.507
same,glycan array binding signal (z-score),[26],-1.38
same,glycan array binding signal (z-score),[27],-0.236
same,glycan array binding signal (z-score),[28],0.226
same,glycan array binding signal (z-score),[29],1.71
same,glycan array binding signal (z-score),[30],0.218
same,glycan array binding signal (z-score),[31],1.32
same,glycan array binding signal (z-score),[32],-0.034
same,glycan array binding signal (z-score),[33],-0.635
same,glycan array binding signal (z-score),Neu5Ac(a2-3)Gal(b1-4)Glc,0.69
same,glycan array binding signal (z-score),[34],-0.719
same,glycan array binding signal (z-score),[35],0.721
same,glycan array binding signal (z-score),[36],-0.908
same,glycan array binding signal (z-score),[37],0.099
same,glycan array binding signal (z-score),[38],0.081
same,glycan array binding signal (z-score),[39],-0.696

# Two consecutive records already listed, quoted:
binder,measurement,setting,value
B1,glycan array binding signal (z-score),[37],0.099
same,glycan array binding signal (z-score),[38],0.081

# From the supplement of paper PMC8728848
